Here are results for 29 sequences from PubChem BioAssay AID1347423 (Functional Genomics Laboratory (NCATS/FGL), 2020).

The campaign covered roughly 52,000 sequences. About 210 (0.4%) were called active.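 Rule for the calls: active = gene whose silencing raises cell survival under the drug, median off-target-corrected z-score across its silencing RNAs 2 or more; inactive = the rest.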 The list shows a part of the results.

The nature of the experiment: Resistance to Poly (ADP-Ribose) Polymerase inhibitor: Gene Identification via Genome-wide siRNA Screen. Particulars: mouse BRCA2 R2336H ES cells, olaparib, CellTiter-Glo viability; active compounds read high. The procedure, abridged: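 Genome-wide siRNA screen (3 siRNAs/gene, 20 nM) in mouse ES cells carrying hypomorphic BRCA2 R2336H; olaparib 500 nM added 48 h post-transfection, CellTiter-Glo viability 72 h later. Normalized to plate-median negative control; MAD z-scores, gene median, seed-adjusted.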
With GGGAAUGCAAUGGUUUGUGTT against Ocm, the z-score is inactive: -0.113.
For the sequence CCUUAUCUUAAUGAUCUCCTT against Mc5r, the z-score was inactive: -0.343.
With “GGCUUAAGUCUACCGAACUTT against 2810432D09Rik”, the z-score is inactive: -0.361.
Next, GGUGUUUUCUGUGUAACCATT against Tlx1: inactive: -1.52; GCUUGUUCGGUCCUUUGAUTT against Fbxw9: inactive: -2.98; “GCUGCCAUUUAUCAACCUUTT against 2210008M09Rik”: inactive: -0.37.
Regarding GCAGUAUCUAUGCUCUUGATT against Hand1, the z-score is inactive: 0.129.
Next, “GCUCUGAUGUCAACCUUCCTT against 1600002K03Rik”: inactive: 0.695; GCCAAGCUUAAGAACUUAATT against Oas3: inactive: -0.555; UGUUACAACUCUUUGUGGUTT against Olfr1193: inactive: -1.4.
Next, GGAUGUGAGUGAGACUGUCTT against Mtm1: inactive: 1.12; GAACUGGACAACUUUCUCCTT against Olfr1355: inactive: 0.0482; GACGCAGAUGGUAUUUUUUTT against Orm2: inactive: -0.266.
To GGUAGACUUCGACAUCAAGTT against Hs6st2 belongs inactive: 1.64; to GGGAUUUUAUCAUACAAACTT against Ppil4, inactive: -0.499.
As for GCAUCUCGGAAGAUCCUGUTT against Vip, the z-score is inactive: -0.34.
Next, UCCAGACUGUACCAUUCCATT against Mesp1: inactive: -0.673.
Next, GCCUCUUUGGGUUCGUUUCTT against Opn3: inactive: -0.851; GGUGUACCAGAAUGAGAAGTT against Akr1b3: inactive: -0.791; GCUAGUCAGAAGAAGUACUTT against Arpm2: inactive: -0.561.
To GGAAGGAAGAGAAUAAGCGTT against Papd4 belongs inactive: 0.536; to GGACUAUGACCCAUAUAGUTT against Zc3hdc8, inactive: -0.584.
In the case of GGAAUUUAGUGUGCGGUCGTT against Oxa1l, the z-score was inactive: 0.74.
Regarding “CCCAGGAAAAACCGUCAACTT against A530094I17Rik”, the z-score is inactive: 1.86.
GCCUUAACUAUAGUCCAGATT against Scn7a: the z-score was inactive: -1.59.
To CGCUGAAAGUGAACGUAGGTT against Kcnv2 belongs inactive: 0.713; to GGACCAAUUGGAUCCUUUUTT against Olfr1340, inactive: -0.205; to GGUGACCAAGAUGCUGUUUTT against Gpr66, inactive: 1.21.
GCCAGUAUUGUGCAACAAGTT against Klrk1: the z-score was inactive: 2.17.
